Results published in patent US20230074145A1.
No constants are given. Whether binding was seen depends on the method and setting. Some results given as binding are weak or reduced against the parent protein; the word gives no strength.

Chains of the proteins cited; added tags and fusions are not shown. Residues count along the entry.
UniProt P25092, residues 24-1073: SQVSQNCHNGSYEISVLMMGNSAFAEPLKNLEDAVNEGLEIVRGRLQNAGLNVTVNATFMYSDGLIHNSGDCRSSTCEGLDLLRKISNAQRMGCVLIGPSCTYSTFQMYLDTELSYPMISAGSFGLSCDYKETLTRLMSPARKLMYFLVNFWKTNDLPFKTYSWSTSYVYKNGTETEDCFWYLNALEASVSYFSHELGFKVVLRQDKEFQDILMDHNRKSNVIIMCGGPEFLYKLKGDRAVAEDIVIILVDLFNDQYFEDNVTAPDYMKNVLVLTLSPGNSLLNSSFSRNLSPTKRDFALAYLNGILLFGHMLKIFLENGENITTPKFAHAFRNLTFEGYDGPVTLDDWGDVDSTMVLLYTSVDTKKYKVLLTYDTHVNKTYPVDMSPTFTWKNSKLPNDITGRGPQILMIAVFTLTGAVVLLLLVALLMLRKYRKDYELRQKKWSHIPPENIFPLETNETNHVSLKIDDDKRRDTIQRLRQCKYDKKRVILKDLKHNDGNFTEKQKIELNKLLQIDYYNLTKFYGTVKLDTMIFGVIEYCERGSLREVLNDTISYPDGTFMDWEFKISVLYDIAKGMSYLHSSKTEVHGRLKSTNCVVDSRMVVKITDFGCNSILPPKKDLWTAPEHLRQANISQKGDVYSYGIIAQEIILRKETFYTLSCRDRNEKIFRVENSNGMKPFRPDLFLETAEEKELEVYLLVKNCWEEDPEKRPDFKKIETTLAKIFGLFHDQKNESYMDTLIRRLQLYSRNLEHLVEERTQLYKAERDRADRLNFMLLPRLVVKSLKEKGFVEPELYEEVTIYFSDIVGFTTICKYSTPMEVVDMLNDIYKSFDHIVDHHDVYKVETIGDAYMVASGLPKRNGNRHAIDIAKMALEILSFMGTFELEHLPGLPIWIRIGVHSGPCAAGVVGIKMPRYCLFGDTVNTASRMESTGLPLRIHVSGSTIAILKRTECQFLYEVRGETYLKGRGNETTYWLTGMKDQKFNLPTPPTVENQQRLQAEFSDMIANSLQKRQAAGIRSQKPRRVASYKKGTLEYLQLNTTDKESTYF

biological target: GCC (GUCY2C, Guanylate Cyclase 2C) on GCC positive cells (UniProt P25092); test: flow cytometry on GCC positive and GCC negative cells

binding | Binder
binds | VHH antibody #62 (VHH) VHH: DVQLQESGGGLVQAGGSLRLACAASGRTASSNAMGWFRQAPGKEREFVAAISGGGIYTDYADSVKGRFTISRDNSKNTMYLQMNSLKPEDTAVYYCAQRNIPRIGLGSGNYDYWGQGTQVTVSS
binds | Bivalent antibody of VHH antibody #62 (protein, not shown: a dimerising Fc or GST) DVQLQESGGGLVQAGGSLRLACAASGRTASSNAMGWFRQAPGKEREFVAAISGGGIYTDYADSVKGRFTISRDNSKNTMYLQMNSLKPEDTAVYYCAQRNIPRIGLGSGNYDYWGQGTQVTVSS

Second part, the binder before the results:

Binder | binding
VHH antibody #32 (VHH) VHH: DVQLQESGGGLVQAGGSLRLTCTTTFSSYAMGWFRQAPGKEREFVATISGGGVYTYYADSVKGRFTISRDNSKNTMYLQMNSLKFEDTAVYYCAQRNIPRYGLESRNYDYWGQGTQVTVSS | binds
Bivalent antibody of VHH antibody #32 (protein, not shown: a dimerising Fc or GST) DVQLQESGGGLVQAGGSLRLTCTTTFSSYAMGWFRQAPGKEREFVATISGGGVYTYYADSVKGRFTISRDNSKNTMYLQMNSLKFEDTAVYYCAQRNIPRYGLESRNYDYWGQGTQVTVSS | binds
